Measurements taken from US5952530A, “Separation processes” (Union Carbide Chemicals & Plastics Technology Corporation, priority 1998, dated 1999).

Experiment: Rhodium remaining in the polar phase after extraction
Assay type: physicochemical

rhodium
Final [Rhodium] (Ligand B 0.8 wt%, 223 ppm rhodium, polar solvent A (anhydrous acetonitrile), Example 33): 5 parts per million
Final [Rhodium] (Ligand B 0.8 wt%, 223 ppm rhodium, polar solvent C (DMSO), Example 35): 2 parts per million
Final [Rhodium] (Ligand B 0.8 wt%, 223 ppm rhodium, polar solvent W (acetonitrile, 1 wt% water), Example 34): 1 parts per million
Final [Rhodium] (Ligand C 0.2 wt%, valeraldehyde 16.1 wt%, acetonitrile/catalyst 0.56, initial rhodium 38 ppm, Example 37): 4 parts per million
Final [Rhodium] (Ligand C 0.5 wt%, valeraldehyde 37.3 wt%, acetonitrile/catalyst 1.7, initial rhodium 99 ppm, Example 36): 5 parts per million
Final [Rhodium] (Ligand E, butyraldehyde 5.2, polar solvent A, Example 29): 196 ppb
Final [Rhodium] (Ligand E, butyraldehyde 39.2, polar solvent A, Example 30): 1628 ppb
Final [Rhodium] (Ligand E, no aldehyde, polar solvent A (anhydrous acetonitrile), Example 26): 237 ppb
Final [Rhodium] (Ligand E, no aldehyde, polar solvent C (DMSO), Example 28): 1148 ppb
Final [Rhodium] (Ligand E, no aldehyde, polar solvent W (acetonitrile, 1 wt% water), Example 27): 381 ppb
Final [Rhodium] (Ligand E, valeraldehyde 5.21, polar solvent A, Example 32): 196 ppb
Final [Rhodium] (Ligand E, valeraldehyde 24.3, polar solvent A, Example 31): 252 ppb
Final [Rhodium] (Ligand H 0.4 wt%, valeraldehyde 34.2 wt%, acetonitrile/catalyst 0.83, initial rhodium 121 ppm, Example 38): 22 parts per million
